From the supplement of paper PMC10849652
Some of the results follow.

Sequences of proteins named here, by UniProt entry; tags and fusion partners are left off. A change or cut given only in a name is not applied to a line headed by its entry.
UniProt P47897: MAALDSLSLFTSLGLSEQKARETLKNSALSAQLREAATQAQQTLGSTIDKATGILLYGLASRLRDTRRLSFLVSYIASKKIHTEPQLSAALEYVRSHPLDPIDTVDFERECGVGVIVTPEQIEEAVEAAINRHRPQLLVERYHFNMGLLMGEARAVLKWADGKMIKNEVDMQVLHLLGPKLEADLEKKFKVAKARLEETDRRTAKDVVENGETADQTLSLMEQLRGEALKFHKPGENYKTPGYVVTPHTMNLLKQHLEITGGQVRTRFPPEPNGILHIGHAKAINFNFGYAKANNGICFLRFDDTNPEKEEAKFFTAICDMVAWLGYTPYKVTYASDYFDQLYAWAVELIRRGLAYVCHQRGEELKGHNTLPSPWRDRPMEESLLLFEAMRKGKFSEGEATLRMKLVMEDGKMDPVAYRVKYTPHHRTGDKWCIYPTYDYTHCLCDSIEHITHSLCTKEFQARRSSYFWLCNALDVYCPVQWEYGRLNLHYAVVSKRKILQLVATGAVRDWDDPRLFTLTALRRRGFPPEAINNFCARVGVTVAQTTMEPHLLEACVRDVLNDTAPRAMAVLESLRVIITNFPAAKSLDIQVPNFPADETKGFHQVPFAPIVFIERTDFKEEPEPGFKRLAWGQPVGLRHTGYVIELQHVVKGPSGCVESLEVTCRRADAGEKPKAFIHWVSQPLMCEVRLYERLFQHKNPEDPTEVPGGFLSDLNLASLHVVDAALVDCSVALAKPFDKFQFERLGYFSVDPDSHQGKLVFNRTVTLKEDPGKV
UniProt P60900, whole entry, looked up: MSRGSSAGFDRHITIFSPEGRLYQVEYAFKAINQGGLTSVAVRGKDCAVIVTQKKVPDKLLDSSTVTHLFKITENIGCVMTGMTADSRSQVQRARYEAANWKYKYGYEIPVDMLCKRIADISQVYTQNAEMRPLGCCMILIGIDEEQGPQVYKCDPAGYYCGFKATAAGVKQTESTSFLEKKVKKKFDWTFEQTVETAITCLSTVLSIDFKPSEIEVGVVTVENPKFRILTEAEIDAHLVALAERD
UniProt Q15269: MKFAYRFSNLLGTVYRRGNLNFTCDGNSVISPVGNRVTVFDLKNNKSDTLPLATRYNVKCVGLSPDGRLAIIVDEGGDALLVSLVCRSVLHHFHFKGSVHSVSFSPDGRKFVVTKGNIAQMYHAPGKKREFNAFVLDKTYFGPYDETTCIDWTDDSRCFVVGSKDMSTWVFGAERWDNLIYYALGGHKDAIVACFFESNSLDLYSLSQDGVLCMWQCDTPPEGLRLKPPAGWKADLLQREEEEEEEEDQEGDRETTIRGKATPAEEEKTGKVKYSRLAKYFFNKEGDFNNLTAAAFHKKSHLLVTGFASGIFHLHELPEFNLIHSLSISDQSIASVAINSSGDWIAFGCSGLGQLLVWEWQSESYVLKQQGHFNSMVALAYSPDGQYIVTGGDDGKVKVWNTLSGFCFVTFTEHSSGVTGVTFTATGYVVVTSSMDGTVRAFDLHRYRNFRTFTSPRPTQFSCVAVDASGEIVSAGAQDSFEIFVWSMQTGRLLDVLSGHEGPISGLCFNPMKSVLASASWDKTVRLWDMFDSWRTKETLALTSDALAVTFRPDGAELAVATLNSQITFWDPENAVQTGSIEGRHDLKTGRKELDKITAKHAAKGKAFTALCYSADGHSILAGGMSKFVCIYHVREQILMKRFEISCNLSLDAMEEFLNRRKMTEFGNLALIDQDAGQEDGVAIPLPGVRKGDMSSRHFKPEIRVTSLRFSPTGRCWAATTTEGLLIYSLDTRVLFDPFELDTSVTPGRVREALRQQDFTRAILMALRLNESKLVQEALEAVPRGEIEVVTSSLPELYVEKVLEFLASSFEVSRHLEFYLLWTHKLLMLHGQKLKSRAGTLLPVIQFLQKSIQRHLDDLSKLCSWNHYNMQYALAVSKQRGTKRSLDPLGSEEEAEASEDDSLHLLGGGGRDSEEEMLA
UniProt Q9BVG9: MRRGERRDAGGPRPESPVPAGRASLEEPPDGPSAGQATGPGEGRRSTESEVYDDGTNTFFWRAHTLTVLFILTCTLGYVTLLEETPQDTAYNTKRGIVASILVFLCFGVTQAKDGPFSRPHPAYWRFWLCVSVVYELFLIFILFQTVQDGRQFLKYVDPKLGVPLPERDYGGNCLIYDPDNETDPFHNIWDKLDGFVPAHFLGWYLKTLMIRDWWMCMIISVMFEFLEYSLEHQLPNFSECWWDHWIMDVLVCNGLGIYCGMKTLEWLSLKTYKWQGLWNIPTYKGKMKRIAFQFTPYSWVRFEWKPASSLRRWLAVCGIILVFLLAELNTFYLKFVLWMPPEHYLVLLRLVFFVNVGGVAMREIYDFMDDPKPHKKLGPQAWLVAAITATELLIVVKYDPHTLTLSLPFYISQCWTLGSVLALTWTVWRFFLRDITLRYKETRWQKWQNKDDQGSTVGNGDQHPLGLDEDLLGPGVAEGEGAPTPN
UniProt Q15274: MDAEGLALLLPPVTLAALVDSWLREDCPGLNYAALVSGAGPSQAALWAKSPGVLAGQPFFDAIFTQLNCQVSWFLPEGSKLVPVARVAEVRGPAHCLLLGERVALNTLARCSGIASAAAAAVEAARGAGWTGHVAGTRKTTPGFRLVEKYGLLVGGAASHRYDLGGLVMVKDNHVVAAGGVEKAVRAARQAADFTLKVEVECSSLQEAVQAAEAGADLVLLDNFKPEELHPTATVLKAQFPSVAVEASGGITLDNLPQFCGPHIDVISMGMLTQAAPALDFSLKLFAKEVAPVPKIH
UniProt Q9BXR0: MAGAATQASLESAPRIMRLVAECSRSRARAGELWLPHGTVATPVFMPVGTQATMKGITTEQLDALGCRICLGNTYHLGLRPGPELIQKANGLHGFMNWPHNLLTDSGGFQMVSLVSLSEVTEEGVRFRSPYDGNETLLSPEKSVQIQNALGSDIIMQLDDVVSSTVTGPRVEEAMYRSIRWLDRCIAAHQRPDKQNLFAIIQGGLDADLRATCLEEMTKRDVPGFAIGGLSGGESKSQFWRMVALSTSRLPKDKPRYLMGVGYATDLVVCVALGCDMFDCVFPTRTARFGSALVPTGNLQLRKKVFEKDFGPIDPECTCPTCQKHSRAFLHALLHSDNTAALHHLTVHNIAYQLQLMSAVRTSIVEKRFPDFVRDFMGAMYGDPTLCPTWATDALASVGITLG
UniProt Q8TBF2: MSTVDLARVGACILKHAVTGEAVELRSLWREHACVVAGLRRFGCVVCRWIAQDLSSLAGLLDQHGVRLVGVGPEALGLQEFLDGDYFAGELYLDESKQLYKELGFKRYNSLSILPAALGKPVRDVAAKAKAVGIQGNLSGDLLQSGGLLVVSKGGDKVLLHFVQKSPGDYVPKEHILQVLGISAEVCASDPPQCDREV
UniProt P25786: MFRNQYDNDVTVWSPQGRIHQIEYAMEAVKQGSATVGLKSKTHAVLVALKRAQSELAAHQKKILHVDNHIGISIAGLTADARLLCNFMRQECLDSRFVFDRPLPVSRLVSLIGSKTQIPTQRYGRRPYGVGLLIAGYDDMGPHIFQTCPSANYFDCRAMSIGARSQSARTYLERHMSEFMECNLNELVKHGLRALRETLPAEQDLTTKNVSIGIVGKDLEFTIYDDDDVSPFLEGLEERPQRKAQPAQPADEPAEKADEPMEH
UniProt Q96PZ0: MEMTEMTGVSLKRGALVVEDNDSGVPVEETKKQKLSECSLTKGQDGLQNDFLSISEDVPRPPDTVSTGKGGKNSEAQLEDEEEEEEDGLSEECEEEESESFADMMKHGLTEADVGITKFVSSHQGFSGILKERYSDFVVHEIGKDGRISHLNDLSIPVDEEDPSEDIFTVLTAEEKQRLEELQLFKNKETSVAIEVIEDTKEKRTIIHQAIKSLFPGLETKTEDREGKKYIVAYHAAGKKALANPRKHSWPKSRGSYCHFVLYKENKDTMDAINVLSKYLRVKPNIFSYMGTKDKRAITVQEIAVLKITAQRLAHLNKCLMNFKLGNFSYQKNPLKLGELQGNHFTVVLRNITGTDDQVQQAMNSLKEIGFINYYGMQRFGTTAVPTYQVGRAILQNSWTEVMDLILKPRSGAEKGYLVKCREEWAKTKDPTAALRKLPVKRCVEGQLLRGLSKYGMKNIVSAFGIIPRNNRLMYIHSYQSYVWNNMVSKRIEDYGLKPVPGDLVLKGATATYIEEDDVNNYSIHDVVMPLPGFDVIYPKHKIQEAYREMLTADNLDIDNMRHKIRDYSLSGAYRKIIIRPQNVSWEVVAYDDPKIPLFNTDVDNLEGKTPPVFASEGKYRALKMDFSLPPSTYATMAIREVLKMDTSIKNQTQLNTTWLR
UniProt O75475: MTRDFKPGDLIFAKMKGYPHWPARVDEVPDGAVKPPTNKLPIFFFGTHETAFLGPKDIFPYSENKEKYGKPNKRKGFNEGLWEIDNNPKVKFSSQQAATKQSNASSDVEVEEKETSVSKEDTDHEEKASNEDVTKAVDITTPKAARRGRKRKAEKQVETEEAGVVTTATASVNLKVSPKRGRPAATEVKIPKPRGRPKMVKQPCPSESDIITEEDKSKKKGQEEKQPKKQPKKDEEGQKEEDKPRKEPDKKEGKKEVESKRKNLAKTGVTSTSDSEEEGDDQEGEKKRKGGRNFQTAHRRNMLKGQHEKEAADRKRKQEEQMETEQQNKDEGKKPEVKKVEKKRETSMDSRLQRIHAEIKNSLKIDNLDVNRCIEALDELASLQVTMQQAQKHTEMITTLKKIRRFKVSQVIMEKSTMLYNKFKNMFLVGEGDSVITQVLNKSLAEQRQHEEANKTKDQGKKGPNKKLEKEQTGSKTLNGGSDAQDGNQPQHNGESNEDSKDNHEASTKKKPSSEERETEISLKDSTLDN
UniProt P78330: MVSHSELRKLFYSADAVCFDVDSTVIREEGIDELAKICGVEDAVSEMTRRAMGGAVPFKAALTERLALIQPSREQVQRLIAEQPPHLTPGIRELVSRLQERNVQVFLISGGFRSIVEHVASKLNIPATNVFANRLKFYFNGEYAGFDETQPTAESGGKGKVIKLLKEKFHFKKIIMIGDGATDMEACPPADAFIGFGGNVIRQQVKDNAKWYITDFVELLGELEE
UniProt Q96C36: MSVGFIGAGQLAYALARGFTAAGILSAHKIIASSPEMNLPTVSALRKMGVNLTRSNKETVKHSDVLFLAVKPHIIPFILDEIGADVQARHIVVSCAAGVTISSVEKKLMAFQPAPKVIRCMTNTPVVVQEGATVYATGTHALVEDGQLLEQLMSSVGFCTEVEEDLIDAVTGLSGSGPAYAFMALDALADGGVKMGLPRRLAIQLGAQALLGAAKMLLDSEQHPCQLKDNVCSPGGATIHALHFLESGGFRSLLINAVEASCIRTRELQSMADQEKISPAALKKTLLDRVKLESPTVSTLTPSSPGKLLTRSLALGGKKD
UniProt P28074: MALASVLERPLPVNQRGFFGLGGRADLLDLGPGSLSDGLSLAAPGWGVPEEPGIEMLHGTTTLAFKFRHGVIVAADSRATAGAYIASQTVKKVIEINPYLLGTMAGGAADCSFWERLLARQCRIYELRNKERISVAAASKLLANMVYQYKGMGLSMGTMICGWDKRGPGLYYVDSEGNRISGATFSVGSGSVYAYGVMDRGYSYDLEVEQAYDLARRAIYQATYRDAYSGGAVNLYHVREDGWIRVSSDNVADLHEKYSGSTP
UniProt Q99436: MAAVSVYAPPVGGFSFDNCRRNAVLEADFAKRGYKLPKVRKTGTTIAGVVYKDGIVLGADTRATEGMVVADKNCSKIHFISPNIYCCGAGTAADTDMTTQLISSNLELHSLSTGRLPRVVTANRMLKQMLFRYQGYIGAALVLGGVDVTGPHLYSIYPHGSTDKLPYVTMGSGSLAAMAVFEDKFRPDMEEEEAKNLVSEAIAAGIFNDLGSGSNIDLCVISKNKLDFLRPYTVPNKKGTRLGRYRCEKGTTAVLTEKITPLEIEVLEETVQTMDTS
UniProt Q96BW5: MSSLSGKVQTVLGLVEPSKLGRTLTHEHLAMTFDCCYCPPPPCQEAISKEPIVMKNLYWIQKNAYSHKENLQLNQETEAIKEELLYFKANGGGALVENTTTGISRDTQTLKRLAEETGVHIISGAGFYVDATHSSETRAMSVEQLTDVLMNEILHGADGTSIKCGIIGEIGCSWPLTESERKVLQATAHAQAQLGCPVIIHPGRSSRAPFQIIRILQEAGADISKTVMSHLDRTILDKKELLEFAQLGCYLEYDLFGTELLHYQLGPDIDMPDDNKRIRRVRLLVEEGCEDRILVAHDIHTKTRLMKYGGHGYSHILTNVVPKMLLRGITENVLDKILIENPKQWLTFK
UniProt Q9H939: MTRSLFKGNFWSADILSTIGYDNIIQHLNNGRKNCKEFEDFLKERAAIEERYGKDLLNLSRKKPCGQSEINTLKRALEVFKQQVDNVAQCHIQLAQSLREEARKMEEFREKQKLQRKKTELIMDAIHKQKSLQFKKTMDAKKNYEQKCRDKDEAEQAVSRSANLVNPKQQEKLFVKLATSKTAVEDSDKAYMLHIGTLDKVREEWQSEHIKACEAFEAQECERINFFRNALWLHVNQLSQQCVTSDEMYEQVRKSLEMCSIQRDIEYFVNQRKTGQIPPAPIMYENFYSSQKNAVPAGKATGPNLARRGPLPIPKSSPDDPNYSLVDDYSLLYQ

Assays:
Assay in all cases: log2 fold change, soluble protein after heating vs DMSO (PISA); higher = thermal stabilisation; K562 cells, 10 uM, 30 min; active = over 0.2 and 3.5 SD of the protein, either way, in both replicates (recomputed)
saracatinib = compound: CN1CCN(CCOc2cc(OC3CCOCC3)c3c(Nc4c(Cl)ccc5c4OCO5)ncnc3c2)CC1 [saracatinib]
In short: (§1)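 Aliquots of K562 cells (2×10^6 cells/mL) treated with 10 μM compound for 30 min were heated for 3 min over 48°C-58°C. After pooling and extraction in PBS with 0.5% NP-40 at 4°C, soluble protein from a 21,000xg, 90 min spin was quantified by TMTpro 16plex LC-MS/MS with channel sums equalised. Thermal stability is expressed against control samples, from duplicates, as a log2 fold change.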

sotrastaurin = compound: CN1CCN(c2nc(C3=C(c4c[nH]c5ccccc45)C(=O)NC3=O)c3ccccc3n2)CC1 [sotrastaurin]
In short: as §1

alvocidib = compound: CN1CC[C@H](c2c(O)cc(O)c3c(=O)cc(-c4ccccc4Cl)oc23)[C@H](O)C1 [alvocidib]
In short: as §1

Tubastatin A = compound: CN1CCc2c(c3ccccc3n2Cc2ccc(C(=O)NO)cc2)C1 [Tubastatin A]
In short: as §1

[1] = compound: CNC(=O)C1=CC=CC=C1NC2=NC(=NC=C2Cl)NC3=C(C=C(C=C3)N4CCOCC4)OC
In short: as §1

defactinib = compound: CNC(=O)c1ccc(Nc2ncc(C(F)(F)F)c(NCc3nccnc3N(C)S(C)(=O)=O)n2)cc1 [defactinib]
In short: as §1

rucaparib = compound: CNCc1ccc(-c2[nH]c3cc(F)cc4c3c2CCNC4=O)cc1 [rucaparib]
In short: as §1

[2] = compound: CNc1nc(-c2ccc3c(N)n[nH]c3c2)cc(N2C[C@@H](C(=O)NC3CCCCC3)CC[C@H]2C)n1
In short: as §1

encorafenib = compound: COC(=O)N[C@@H](C)CNc1nccc(-c2cn(C(C)C)nc2-c2cc(Cl)cc(NS(C)(=O)=O)c2F)n1 [encorafenib]
In short: as §1

[3] = compound: COC(=O)[C@H](CCSC)NC(=O)C1=C(C=C(C=C1)NC[C@H](CS)N)C2=CC=CC=C2
In short: as §1

Measured: log2 fold change

QARS (UniProt P47897)
inactive: saracatinib -0.121 | sotrastaurin -0.156 | alvocidib 0.261 | Tubastatin A 0.103 | [1] 0.005 | defactinib 0.292 | rucaparib 0.542 | [2] 0.14 | encorafenib 0.227 | [3] -0.001

PSMA6 (UniProt P60900)
inactive: saracatinib -0.016 | sotrastaurin -0.025 | alvocidib 0.068 | Tubastatin A -0.012 | [1] 0.113 | defactinib 0.069 | rucaparib -0.013 | [2] -0.028 | encorafenib 0.022 | [3] 0.014

PWP2 (UniProt Q15269)
inactive: saracatinib -0.014 | sotrastaurin 0.002 | alvocidib 0.146 | Tubastatin A 0 | [1] -0.024 | defactinib 0.274 | rucaparib 0.279 | [2] 0.044 | encorafenib 0.222 | [3] -0.015

PTGS1 isoform 6 (UniProt P23219)
inactive: saracatinib -0.057 | sotrastaurin 0.011 | alvocidib -0.035 | Tubastatin A 0.011 | [1] -0.049 | defactinib -0.033 | rucaparib -0.102 | [2] -0.06 | encorafenib 0.027 | [3] -0.057

PTDSS2 (UniProt Q9BVG9)
inactive: saracatinib 0.097 | sotrastaurin 0.054 | alvocidib -0.021 | Tubastatin A -0.109 | [1] 0.082 | defactinib -0.078 | rucaparib -0.006 | [2] -0.021 | encorafenib -0.02 | [3] -0.001

PSMF1 (UniProt Q92530)
inactive: saracatinib -0.013 | sotrastaurin 0.024 | alvocidib -0.016 | Tubastatin A -0.001 | [1] 0.029 | defactinib 0 | rucaparib -0.029 | [2] -0.044 | encorafenib -0.013 | [3] -0.003

QPRT (UniProt Q15274)
inactive: saracatinib 0.046 | sotrastaurin 0.011 | alvocidib 0.074 | Tubastatin A 0.004 | [1] -0.034 | defactinib 0.02 | rucaparib -0.038 | [2] -0.028 | encorafenib -0.028 | [3] 0.017

PUS10 (UniProt Q3MIT2)
inactive: saracatinib 0.058 | sotrastaurin -0.137 | alvocidib -0.166 | Tubastatin A 0.013 | [1] -0.102 | defactinib -0.297 | rucaparib 0.066 | [2] -0.046 | encorafenib 0.027 | [3] -0.064

PYCR3 (UniProt Q53H96)
inactive: saracatinib 0.047 | sotrastaurin 0.017 | alvocidib -0.005 | Tubastatin A -0.029 | [1] -0.002 | defactinib -0.009 | rucaparib -0.021 | [2] 0.001 | encorafenib -0.03 | [3] 0.007

Quoted at random: 2 records from the list, in no set order.
PSMF1 (UniProt Q92530)
inactive: saracatinib -0.013 | sotrastaurin 0.024 | alvocidib -0.016 | Tubastatin A -0.001 | [1] 0.029 | defactinib 0 | rucaparib -0.029 | [2] -0.044 | encorafenib -0.013 | [3] -0.003

PTDSS2 (UniProt Q9BVG9)
inactive: saracatinib 0.097 | sotrastaurin 0.054 | alvocidib -0.021 | Tubastatin A -0.109 | [1] 0.082 | defactinib -0.078 | rucaparib -0.006 | [2] -0.021 | encorafenib -0.02 | [3] -0.001

Remaining list, next part.

QTRT1 (UniProt Q9BXR0)
inactive: saracatinib 0.026 | sotrastaurin 0.005 | alvocidib -0.081 | Tubastatin A 0 | [1] -0.03 | defactinib 0.003 | rucaparib 0.006 | [2] -0.059 | encorafenib -0.029 | [3] 0.009

PRXL2B isoform 3 (UniProt Q8TBF2)
inactive: saracatinib 0.061 | sotrastaurin -0.077 | alvocidib 0.008 | Tubastatin A -0.016 | [1] -0.011 | defactinib -0.058 | rucaparib -0.031 | [2] -0.082 | encorafenib 0.003 | [3] 0.051

PSMA1 isoform 2 (UniProt P25786)
inactive: saracatinib 0.021 | sotrastaurin 0.008 | alvocidib 0.075 | Tubastatin A -0.074 | [1] 0.016 | defactinib 0.047 | rucaparib -0.003 | [2] -0.014 | encorafenib 0.012 | [3] 0.025

PYURF (UniProt Q96I23)
inactive: saracatinib 0.093 | sotrastaurin -0.07 | alvocidib 0.112 | Tubastatin A -0.026 | [1] 0.032 | defactinib 0.027 | rucaparib 0.015 | [2] -0.126 | encorafenib -0.056 | [3] 0.029

PTPN1 (UniProt P18031)
inactive: saracatinib -0.142 | sotrastaurin -0.194 | alvocidib 0.032 | Tubastatin A 0.081 | [1] 0.001 | defactinib -0.073 | rucaparib 0.208 | [2] 0.099 | encorafenib 0.206 | [3] -0.16

PUS7 isoform 2 (UniProt Q96PZ0)
inactive: saracatinib -0.042 | sotrastaurin -0.05 | alvocidib -0.052 | Tubastatin A -0.009 | [1] -0.012 | defactinib -0.058 | rucaparib 0.044 | [2] -0.037 | encorafenib 0.017 | [3] 0.015

PSIP1 (UniProt O75475)
inactive: saracatinib -0.056 | sotrastaurin -0.032 | alvocidib 0.092 | Tubastatin A -0.052 | [1] 0.011 | defactinib 0.104 | rucaparib 0.195 | [2] 0.03 | encorafenib 0.075 | [3] 0.037

PTGES2 (UniProt Q9H7Z7)
inactive: saracatinib 0.061 | sotrastaurin 0.019 | alvocidib 0.072 | Tubastatin A -0.055 | [1] 0.015 | defactinib -0.023 | rucaparib -0.015 | [2] -0.037 | encorafenib -0.006 | [3] 0.01

PSPH (UniProt P78330)
inactive: saracatinib -0.02 | sotrastaurin 0.053 | alvocidib 0.014 | Tubastatin A 0.001 | [1] -0.027 | defactinib -0.036 | rucaparib 0.015 | [2] -0.021 | encorafenib -0.022 | [3] -0.021

PYCR2 (UniProt Q96C36)
inactive: saracatinib 0.069 | sotrastaurin 0.015 | alvocidib -0.031 | Tubastatin A -0.049 | [1] -0.006 | defactinib -0.012 | rucaparib 0.004 | [2] 0.014 | encorafenib -0.014 | [3] 0.002

PSMB5 (UniProt P28074)
inactive: saracatinib 0.025 | sotrastaurin -0.032 | alvocidib 0.061 | Tubastatin A -0.02 | [1] 0.013 | defactinib 0.048 | rucaparib 0.019 | [2] -0.015 | encorafenib 0.011 | [3] 0.041

PTBP3 isoform 4 (UniProt O95758)
inactive: saracatinib -0.015 | sotrastaurin -0.029 | alvocidib -0.08 | Tubastatin A 0.018 | [1] 0.032 | defactinib -0.226 | rucaparib -0.003 | [2] 0.003 | encorafenib 0.082 | [3] -0.057

PTPN11 isoform 1 (UniProt Q06124)
inactive: saracatinib 0.024 | sotrastaurin 0.003 | alvocidib -0.052 | Tubastatin A -0.003 | [1] 0.004 | defactinib -0.057 | rucaparib -0.012 | [2] -0.011 | encorafenib -0.002 | [3] -0.011

PSMB7 (UniProt Q99436)
inactive: saracatinib 0 | sotrastaurin 0.006 | alvocidib 0.091 | Tubastatin A -0.023 | [1] -0.008 | defactinib 0.039 | rucaparib 0 | [2] 0 | encorafenib 0.01 | [3] 0.019

PTER (UniProt Q96BW5)
inactive: saracatinib 0.025 | sotrastaurin 0.018 | alvocidib -0.011 | Tubastatin A -0.029 | [1] -0.028 | defactinib 0 | rucaparib -0.039 | [2] -0.042 | encorafenib 0 | [3] 0.007

PSD4 (UniProt Q8NDX1)
inactive: saracatinib 0.005 | sotrastaurin -0.211 | alvocidib -0.169 | Tubastatin A 0.013 | [1] 0.018 | defactinib -0.413 | rucaparib 0.338 | [2] -0.025 | encorafenib 0.116 | [3] -0.092

PWP1 (UniProt Q13610)
inactive: saracatinib -0.043 | sotrastaurin 0.007 | alvocidib 0.364 | Tubastatin A 0.152 | [1] -0.03 | defactinib 0.431 | rucaparib 0.448 | [2] 0.115 | encorafenib 0.13 | [3] -0.001

PSTPIP2 (UniProt Q9H939)
inactive: saracatinib -0.051 | sotrastaurin -0.096 | alvocidib 0.019 | Tubastatin A 0.053 | [1] 0.049 | defactinib -0.103 | rucaparib 0.131 | [2] 0.038 | encorafenib 0.077 | [3] -0.02
